Source: PubChem BioAssay AID1259263 (Sanger Institute, 2017)

Screen: 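Kinase knock-downs that boost drug killing of colorectal cancer cells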 (follow-up of hits)
Cells: SW1463 human colorectal cancer cell line
Reagent: single siRNA against human genes
Conditions: anchor drugs BYL719 at 1 µM, cetuximab at 5 µg/ml or trametinib at 10 nM, or DMSO vehicle, added one day after siRNA transfection
Detection: 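Replicate-mean survival scaled to a non-targeting siRNA control, and a synergy score of actual versus predicted viability drop when siRNA and drug act together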
Scale: synergy score with trametinib and synergy score with BYL719 and synergy score with cetuximab: higher = stronger synthetic lethal effect with the drug
Rule for the call: 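Called active if the synergy score is above 0.10 for one or more of the three anchor drugs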
Calls: active = synergy with at least one drug; inactive = no synergy with any drug
Here is a random part of 160 deposited reagents. In the full data, 101 (63%) got an active call. 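Drug doses chosen to kill few cells alone; each row is one siRNA, and a gene counts as confirmed only if two or more siRNAs show synergy.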 Reagents against one gene are numbered here. Further read-outs or replicates are left out here. The record does not give: the amount of reagent, the time to read-out.

Target gene | siRNA no. | synergy score with trametinib | synergy score with BYL719 | synergy score with cetuximab | Call
BMPR2 (bone morphogenetic protein receptor type 2) | 1 | 0.00557 | 0.114 | 0.147 | –
BMPR2 (bone morphogenetic protein receptor type 2) | 2 | 0.332 | 0.157 | 0.122 | active
BMPR2 (bone morphogenetic protein receptor type 2) | 3 | 0.151 | -0.17 | -0.00317 | active
BMPR2 (bone morphogenetic protein receptor type 2) | 4 | -0.195 | 0.0288 | -0.175 | inactive
IRAK3 (interleukin 1 receptor associated kinase 3) | 1 | 0.257 | -0.129 | 0.0855 | active
IRAK3 (interleukin 1 receptor associated kinase 3) | 2 | 0.233 | -0.0857 | 0.126 | active
IRAK3 (interleukin 1 receptor associated kinase 3) | 3 | -0.0592 | -0.241 | 0.0852 | inactive
IRAK3 (interleukin 1 receptor associated kinase 3) | 4 | 0.113 | 0.0696 | -0.0613 | active
HSPB8 (heat shock protein family B (small) member 8) | 1 | 0.146 | -0.118 | 0.0674 | active
HSPB8 (heat shock protein family B (small) member 8) | 2 | 0.212 | 0.053 | 0.0757 | active
HSPB8 (heat shock protein family B (small) member 8) | 3 | -0.182 | -0.142 | 0.0311 | inactive
HSPB8 (heat shock protein family B (small) member 8) | 4 | 0.18 | -0.0279 | 0.274 | active
NR2F2 (nuclear receptor subfamily 2 group F member 2) | 1 | 0.228 | -0.294 | -0.0219 | active
NR2F2 (nuclear receptor subfamily 2 group F member 2) | 2 | 0.156 | -0.235 | -0.0701 | active
NR2F2 (nuclear receptor subfamily 2 group F member 2) | 3 | 0.344 | -0.0249 | 0.139 | active
NR2F2 (nuclear receptor subfamily 2 group F member 2) | 4 | 0.0782 | 0.0693 | -0.0563 | inactive

Sorted by “synergy score with BYL719” (low to high): 2 of the entries above.
Target gene | siRNA no. | synergy score with trametinib | synergy score with BYL719 | synergy score with cetuximab | Call
BMPR2 (bone morphogenetic protein receptor type 2) | 1 | 0.00557 | 0.114 | 0.147 | –
BMPR2 (bone morphogenetic protein receptor type 2) | 2 | 0.332 | 0.157 | 0.122 | active
